# Values joined by “and” are separate entries in the source; they are usually repeats but may differ in a detail not shown here. Equal entries are not always repeated. Some of the results follow. The main result of the screen is listed elsewhere. These columns were measured beside it and carry no call. Most of these compounds were active or inconclusive in the main read-out, so they are no random draw. Potencies come from curve fits of mixed quality, noted in brackets.
# Experiment: IkB Signaling
# Settings: ABC-DLBCL IkBa-CBG/CBR dual luciferase ratio (green luciferase fused to IkBa over red control in OCI-Ly3 lymphoma cells), 4 h
# How it was run: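 In this assay, an IκBα–CBG68 fusion accumulates when IKK-driven degradation is blocked; native CBR normalizes for cell number. OCI-Ly3 cells were treated 4 h with compound and doxycycline, then green and red light read after Chroma-Glo addition.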
# [1] = measured here: control luc red channel unless noted
structure (smiles),measurement,setting,value
c1ccc2c(c1)OCC(c1nn3c(Cn4nnc5ccccc54)nnc3s1)O2 (configuration not stated),AC50,[1],"12.6 µM [falling, partial curve]"
CCCNC(=O)CCC(=O)N1Cc2ccccc2Oc2ncccc21,AC50,[1],"6.31 µM [rising, partial curve]"
Cc1cc(N2CCC(C)CC2)nc2ccc(NC(=O)/C=C/c3cccc(Cl)c3)cc12,AC50,[1],"3.98 µM [falling, full curve]"
c1ccc2c(-c3nc(-c4ccncc4)no3)cccc2c1,AC50,[1],"0.158 µM [rising, full curve]"
CC(C)c1ccc(Nc2c(-c3ccccc3O)nc3cnccn23)cc1,AC50,[1],"12.6 µM [falling, partial curve]"
COC(=O)Nc1nc2ccc(C(=O)c3cccs3)cc2[nH]1,AC50,measured here: IkB-luc green channel,"126 nM [rising, full curve] and 200 nM [rising, full curve]"
same,AC50,measured here: control luc red channel,"39.8 nM [rising, full curve] and 251 nM [rising, full curve] and 200 nM [rising, full curve]"
Cc1ccc2nc(NC(=O)c3cc(=O)c4cc(Cl)ccc4o3)sc2c1,AC50,[1],"39.8 µM [falling, single point]"
CC(=O)N1CCc2c(sc3c2c(=O)n(-c2ccc(C)cc2)c(=O)n3CC(=O)Nc2ccccc2)C1,AC50,[1],"2.51 µM [falling, full curve]"
Cn1c(Oc2ccc(F)cc2)nc2c1c(=O)n(Cc1ccccc1Cl)c(=O)n2C,AC50,[1],"12.6 µM [falling, partial curve]"
COC(=O)c1c(NC(=O)c2ccccc2C(=O)O)sc2c1CCCC2,AC50,[1],"39.8 µM [falling, single point]"
COc1ccc(Cn2ccc3nc(C)c(C(=O)Nc4ccc(C)c(F)c4)cc3c2=O)cc1,AC50,[1],"1 µM [rising, partial curve, poor fit]"
O=C(C1CCCN(S(=O)(=O)c2cccs2)C1)N1CCc2ccccc2C1 (configuration not stated),AC50,[1],"20 µM [falling, partial curve]"
Cn1c(SCC(=O)NCc2ccc3c(c2)OCO3)nc2scc(-c3cccs3)c2c1=O,AC50,[1],"10 µM [falling, partial curve]"
O=C(C1CCN(S(=O)(=O)c2cccc3nonc23)CC1)N1CCN(c2ccccc2)CC1,AC50,[1],"39.8 µM [falling, single point]"
COC(=O)CSc1nnc(CNC(=O)Cc2ccccc2)n1-c1ccccc1OC,AC50,[1],"3.16 µM [falling, partial curve]"
CS(=O)(=O)N1CCc2cc(C(=O)N3CCN(c4ccc(F)cc4)CC3)ccc21,AC50,[1],"31.6 µM [falling, single point]"
CC(=O)N1CCCc2ccc(NS(=O)(=O)c3ccc(F)cc3F)cc21,AC50,[1],"15.8 µM [falling, partial curve]"
COc1cc(C(=O)N2CCc3c([nH]c4ccccc34)C2c2ccccc2)cc(OC)c1OC (configuration not stated),AC50,[1],"15.8 µM [falling, partial curve, poor fit]"
Cc1cccc(N(CC(=O)NCCSc2ccc(Cl)cc2)S(=O)(=O)c2ccccc2)c1C,AC50,[1],"6.31 µM [falling, full curve]"
O=C(NCc1ccc(N2CCCC2=O)cc1)Nc1cccc(Cl)c1,AC50,[1],"12.6 µM [falling, partial curve]"
Cc1ccc(C)c(N2CCN(C(=O)c3cc(S(=O)(=O)N4CCCC4)cn3C)CC2)c1,AC50,[1],"25.1 µM [falling, partial curve]"
CCOC(=O)C1CCC(CN(Cc2c(Cl)cccc2Cl)S(=O)(=O)c2ccc(F)cc2)CC1 (configuration not stated),AC50,[1],"25.1 µM [falling, single point]"
CCOc1ccc(OCc2cccc(C(=O)O)c2)cc1,AC50,[1],"0.398 µM [falling, full curve]"
COc1ccc(N2CCN(c3cc(C)c4ccc(O)cc4n3)CC2)cc1,AC50,[1],"12.6 µM [falling, partial curve]"
Cc1nc(SCC(=O)Nc2ccc(Br)cc2)[nH]c(=O)c1Cc1ccccc1,AC50,[1],"10 µM [falling, partial curve]"
Cc1c(Cl)cccc1NC(=O)Cn1nc(C)c2sc3ccccc3c2c1=O,AC50,[1],"3.16 µM [falling, full curve]"
Cc1ccc(C)c(S(=O)(=O)c2nnn3c2nc(Nc2ccc(F)c(Cl)c2)c2sccc23)c1,AC50,[1],"6.31 µM [falling, partial curve]"
Cc1ccc2c(c1)N(C(=O)N1CCC(C(=O)NCc3ccco3)CC1)CC(C)O2 (configuration not stated),AC50,[1],"39.8 µM [falling, single point]"
CCCCOC(=O)c1ccc(NC(=O)Cc2coc3ccc(C(C)C)cc23)cc1,AC50,[1],"39.8 µM [falling, single point]"
COc1ccc(NC(=O)C2C(=O)N(CCO)C3(C)CC2c2ccccc2O3)cc1 (configuration not stated),AC50,[1],"3.16 µM [falling, full curve, poor fit]"
Cc1cc(C)c(C(=O)Nc2ccccc2)c(SCC(=O)Nc2ccc(Br)cc2C)n1,AC50,[1],"39.8 µM [falling, single point]"

# Source: PubChem BioAssay AID445 (National Center for Advancing Translational Sciences (NCATS), 2006)
